# Experimental data as given in PubChem BioAssay AID504467 (National Center for Advancing Translational Sciences (NCATS), 2011).
# Screen size: about 330,000 compounds; about 7,700 (2.3%) were called active. This list was built around the results that the source calls inconclusive (neither active nor inactive); the mix of calls is not that of the screen. Calls come from the whole dose curve; as a rule, active = well fitted inhibition curve with a large enough effect; inconclusive = small, poorly fitted or top-dose-only effect, or effect the other way; inactive = flat fitted curve, though single readings scatter. Potencies of inconclusive entries are doubtful fits and often do not repeat.
# Test: qHTS screen for small molecules that inhibit ELG1-dependent DNA repair in human embryonic kidney (HEK293T) cells expressing luciferase-tagged ELG1; note: nearly all actives have a fitted effect of over 55% in size
# Details: HEK293T ELG1-luciferase reporter, luminescence, 16 h, DNA damage induced by 5-fluorouridine; series mostly up to 46.1 µM
# In short: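 DMSO vehicle served as the neutral condition. Each well held 2,000 cells given 5-fluorouridine plus compound; after 16 hr at 37 °C/5% CO2, ONE-Glo was added and luciferase measured 30 min later.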
# Potency is the fitted concentration of half-maximal effect.
row,Compound,Potency
1,CNS(=O)(=O)c1cc(NC(=O)c2cnc(SC)n2-c2ccccc2)ccc1C,inactive
2,CCOc1ccc(S(=O)(=O)N(CC)CC(=O)NC2CC2)cc1,"inconclusive: 23.1 µM [activator, partial curve, poor fit]"
3,COc1ccc(C)cc1S(=O)(=O)NCCC1=CCCCC1,"inconclusive: 10.3 µM [inhibitor, partial curve, poor fit]"
4,COc1ccccc1CCNC(=O)c1csc2c1CCCC2,"inconclusive: 6.51 µM [inhibitor, partial curve, poor fit]"
5,O=[N+]([O-])c1ccccc1OCCCOc1cccc2cccnc12,"inconclusive: 25.1 µM [activator, partial curve]"
6,COc1cc(Cl)c(C)cc1NC(=O)COc1ccc(C)nc1[N+](=O)[O-],"inconclusive: 5.17 µM [activator, partial curve, poor fit]"
7,COc1ccccc1C(=O)NNC(=S)NC(=O)c1sc2ccccc2c1Cl,"inconclusive: 20.6 µM [activator, single point]"
8,Brc1ccc(-c2nnc(-c3ccccc3)c(N3CCSCC3)n2)cc1,"inconclusive: 1.16 µM [activator, single point]"
9,CCN(CC)CCSc1nc2ccccc2c(=S)n1-c1ccccc1,inactive
10,Cc1nn(-c2nnc(NCc3ccccc3)nn2)c(C)c1Br,"inconclusive: 16.4 µM [activator, partial curve]"
11,O=C(CSC1=NCCN1)C1COc2ccccc2O1 (centres undefined),inactive
12,O=C(CSc1ccc(Br)cc1)NCC(c1ccco1)N1CCCCC1 (centres undefined),inactive
13,Cc1ccc(NC(=O)c2ccc(S(=O)(=O)N3CCCCCC3)cc2)nc1,"inconclusive: 16.4 µM [inhibitor, single point]"
14,O=C(Cn1c(=O)oc2cccnc21)Nc1ccc(C(F)(F)F)cc1,inactive
15,CCCCOc1ccc(C(=O)NCC(=O)N2CC(C)OC(C)C2)cc1 (centres undefined),"inconclusive: 29.1 µM [activator, single point]"
16,COc1ccc(-n2nc(C(=O)Nc3cc(OC)c(OC)c(OC)c3)c3ccccc3c2=O)c(OC)c1,"inconclusive: 13 µM [inhibitor, partial curve]"
17,CNC(=O)Nc1ccc(C2SCCS2)cc1,"inconclusive: 20.6 µM [activator, partial curve]"
18,NNC(=O)CSc1nc(-c2ccccc2)cn1-c1ccccc1,"inconclusive: 20.6 µM [activator, single point]"
19,COc1ccc(NC2CC(=O)N(c3ccccc3)C2=O)cc1 (centres undefined),"inconclusive: 16.4 µM [activator, partial curve]"

# Pulled by compound from above (2):
row,Compound,Potency
10,Cc1nn(-c2nnc(NCc3ccccc3)nn2)c(C)c1Br,"inconclusive: 16.4 µM [activator, partial curve]"
12,O=C(CSc1ccc(Br)cc1)NCC(c1ccco1)N1CCCCC1 (centres undefined),inactive
